Record: PubChem BioAssay AID1259280 (Sanger Institute, 2017)

Aim: 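Essential kinases and drug-combination synergies in SNU407 cells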 (primary screen)
System: human SNU407 colorectal cancer cells
Reagents: siRNA pool against human genes
Challenge: anchor drugs BYL719 at 1 µM, cetuximab at 5 µg/ml or trametinib at 10 nM, or DMSO vehicle alone; exposure time not given
Detection: 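Viability relative to non-targeting control siRNA, expressed as robust z-score, plus a synergy score for each of the three anchor drugs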
Direction: viability z-score, no drug: higher = more cells survive the knock-down
Rule for the call: 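a knock-down counts as essential when its robust viability z-score without drug is below -3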
Calls: active = essential (knock-down alone kills cells); inactive = no change without drug
Shown is one part, drawn at random, of 794 reagents tested. 12 of all reagents (1.5%) were called active. 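Calls cover knock-down without drug only; synergy scores stand apart, values above 0.15 being treated as synergy.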 Unmarked entries are inactive. Further read-outs or replicates are left out here. Reagent sequences are not shown. Not given: the amount of reagent, the time to read-out.

For BCR (BCR activator of RhoGEF and GTPase) the deposit lists viability z-score, no drug 0.0956.
Knock-down of PDK2 (pyruvate dehydrogenase kinase 2) gave: viability z-score, no drug 0.746.
After knock-down of ELF3 (E74 like ETS transcription factor 3) the results were viability z-score, no drug 0.901.
After knock-down of DAPK2 (death associated protein kinase 2), the record shows viability z-score, no drug 0.901.
Depletion of PIP5KL1 (phosphatidylinositol-4-phosphate 5-kinase like 1) came out at: viability z-score, no drug 0.794.
Silencing of ALPK2 (alpha kinase 2) came out at: viability z-score, no drug 0.557.
Depletion of PTEN (phosphatase and tensin homolog) gave: viability z-score, no drug 0.811.
With knock-down of CSNK1G3 (casein kinase 1 gamma 3), the screen gave viability z-score, no drug 0.901.
For PSKH2 (protein serine kinase H2), the values are viability z-score, no drug 0.901.
PAK4 (p21 (RAC1) activated kinase 4) scored viability z-score, no drug 0.864.
Knock-down of DLG2 (discs large MAGUK scaffold protein 2) gave: viability z-score, no drug -0.43.
CDK5 (cyclin dependent kinase 5) showed viability z-score, no drug 0.557.
For ALK (ALK receptor tyrosine kinase), the entry reads viability z-score, no drug -1.83.

Copied from the listing (3 entries):
DLG2 (discs large MAGUK scaffold protein 2): viability z-score, no drug = -0.43
CDK5 (cyclin dependent kinase 5): viability z-score, no drug = 0.557
ALK (ALK receptor tyrosine kinase): viability z-score, no drug = -1.83

The list goes on.
After knock-down of TAF1 (TATA-box binding protein associated factor 1), the record shows viability z-score, no drug -0.617.
After knock-down of TSSK2 (testis specific serine kinase 2) the results were viability z-score, no drug 0.9.
Against TNNI3K (TNNI3 interacting kinase) the deposit lists viability z-score, no drug 0.901.
KCNH2 (potassium voltage-gated channel subfamily H member 2) gave viability z-score, no drug -0.454.
Against BCKDK (branched chain keto acid dehydrogenase kinase), the values are viability z-score, no drug -0.645.
For PIK3R1 (phosphoinositide-3-kinase regulatory subunit 1) the deposit lists viability z-score, no drug 0.901.
Silencing of STK40 (serine/threonine kinase 40) resulted in: viability z-score, no drug -0.489.
CALM2 (calmodulin 2) showed viability z-score, no drug -0.566.
After knock-down of PFKFB3 (6-phosphofructo-2-kinase/fructose-2,6-biphosphatase 3), the screen gave viability z-score, no drug 0.353.
Silencing of NEK6 (NIMA related kinase 6) resulted in: viability z-score, no drug 0.824.
After knock-down of RTN4 (reticulon 4) the results were viability z-score, no drug 0.56.
After knock-down of TRIB3 (tribbles pseudokinase 3), the record shows viability z-score, no drug -0.246.
For CNOT1 (CCR4-NOT transcription complex subunit 1), the entry reads viability z-score, no drug -2.5.
Against CDKN1A (cyclin dependent kinase inhibitor 1A), the values are viability z-score, no drug 0.901.
Knock-down of PRKCE (protein kinase C epsilon) gave: viability z-score, no drug -0.623.
MAP3K15 (mitogen-activated protein kinase kinase kinase 15) showed viability z-score, no drug 0.901.
After knock-down of STK17A (serine/threonine kinase 17a), the screen gave viability z-score, no drug -0.402.
For TEK (TEK receptor tyrosine kinase) the deposit lists viability z-score, no drug -0.685.
MAP2K1 (mitogen-activated protein kinase kinase 1) showed viability z-score, no drug 0.782.
Against CIB2 (calcium and integrin binding family member 2), the values are viability z-score, no drug -0.265.
For TTBK1 (tau tubulin kinase 1), the values are viability z-score, no drug -0.62.
Silencing of PRKG2 (protein kinase cGMP-dependent 2) gave: viability z-score, no drug -0.829.
ROR1 (ROR family WNT receptor 1) showed viability z-score, no drug 0.16.
